PubChem BioAssay AID1224828, NIAID | 2016
Shown is a random part of about 17,000 deposited reagents. 762 of all reagents (4.5%) were called active. 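Active calls include both raised and lowered p65 entry, mostly lowered; wells with fewer than 50 cells lack a z-score.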 Raw values are not corrected between plates. A number with no mark means an inactive call. Reagents against one gene are numbered here. Reagent sequences are not shown.

- Test: 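Regulators linking TLR4 signalling to p65 nuclear translocation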 (primary screen)
- System: mouse RAW264.7 G9 macrophage reporter cells (GFP-p65, Tnf promoter-mCherry)
- Reagents: siRNA pool against mouse genes, 100 nM
- Duration: 2 days siRNA transfection, then 40 min LPS before fixation
- Treatment: LPS (Salmonella minnesota R595) at 10 ng/ml
- Detection: 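Microscopy ratio of nuclear to perinuclear-ring GFP-p65 signal, scaled to the plate median; gene score is the average of two replicate robust z-scores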
- Reading the numbers: p65 translocation robust z-score: higher = more nuclear NF-kappaB p65 after LPS than the plate median; nuclear/cytoplasmic p65 ratio: higher = more nuclear NF-kappaB p65
- Hit rule: 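Active if robust z is above 3.3 (negative regulators) or below -1.56, the Tlr4 control median (positive regulators); activity score 50 or more; control wells not called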
- Calls: active = hit (p65 shift raised or lowered); inactive = no clear change

gene,reagent no.,p65 translocation robust z-score,"nuclear/cytoplasmic p65 ratio, rep 1","nuclear/cytoplasmic p65 ratio, rep 2",low cell count flag
Il21r (GeneID 60504),1,-0.61,1.39,1.31,enough cells to score
Tsfm (GeneID 66399),1,,1.35,1.2,fewer than 50 cells per well; well left out of scoring
Plbd2 (GeneID 71772),1,-1.97 (active),1.4,1.22,enough cells to score
Fam171a2 (GeneID 217219),1,-0.69,1.46,1.75,enough cells to score
Snapc5 (GeneID 330959),1,-0.08,1.41,1.08,enough cells to score
Ssr3 (GeneID 67437),1,-0.21,1.44,1.6,enough cells to score
Vwa5b2 (GeneID 328643),1,0.15,1.5,1.55,enough cells to score
Vwa5b2 (GeneID 328643),2,-0.43,1.79,1.36,enough cells to score
Or10ak14 (GeneID 258259),1,,1.52,1.49,fewer than 50 cells per well; well left out of scoring
Gm5089 (GeneID 328479),1,0.43,1.43,1.67,enough cells to score
Efcc1 (GeneID 58229),1,-0.37,1.28,1.48,enough cells to score
Pecr (GeneID 111175),1,0.33,1.43,1.52,enough cells to score
Pgap6 (GeneID 60455),1,,1.41,1.3,fewer than 50 cells per well; well left out of scoring
Hspa8 (GeneID 15481),1,,2.54,1.18,fewer than 50 cells per well; well left out of scoring
Gabpa (GeneID 14390),1,0.16,1.41,1.44,enough cells to score
Ppp2ca (GeneID 19052),1,-0.54,1.62,1.31,enough cells to score
Misp (GeneID 78906),1,-0.98,1.28,1.42,enough cells to score
Or52h9 (GeneID 258809),1,-0.23,1.41,1.17,enough cells to score
Copa (GeneID 12847),1,1.34,1.86,1.91,enough cells to score
Cnga3 (GeneID 12790),1,-1.82 (active),1.4,1.15,enough cells to score
Atp6v1g1 (GeneID 66290),1,-0.69,1.46,1.45,enough cells to score
Il7r (GeneID 16197),1,-1.24,1.31,1.22,enough cells to score

4 consecutive records already listed, for reference:
gene,reagent no.,p65 translocation robust z-score,"nuclear/cytoplasmic p65 ratio, rep 1","nuclear/cytoplasmic p65 ratio, rep 2",low cell count flag
Gm5089 (GeneID 328479),1,0.43,1.43,1.67,enough cells to score
Efcc1 (GeneID 58229),1,-0.37,1.28,1.48,enough cells to score
Pecr (GeneID 111175),1,0.33,1.43,1.52,enough cells to score
Pgap6 (GeneID 60455),1,,1.41,1.3,fewer than 50 cells per well; well left out of scoring

Further records follow:
gene,reagent no.,p65 translocation robust z-score,"nuclear/cytoplasmic p65 ratio, rep 1","nuclear/cytoplasmic p65 ratio, rep 2",low cell count flag
Tmem18 (GeneID 211986),1,0.68,1.75,1.88,enough cells to score
Rab40c (GeneID 224624),1,0.03,1.56,1.48,enough cells to score
Cel (GeneID 12613),1,0.45,1.55,1.41,enough cells to score
Hus1b (GeneID 210554),1,0.75,1.51,1.5,enough cells to score
Zfp41 (GeneID 22701),1,-0.32,1.43,1.49,enough cells to score
Pwp2 (GeneID 110816),1,-0.43,1.31,1.18,enough cells to score
Gm15850 (GeneID 329253),1,1.82,1.69,1.78,enough cells to score
Or10k2 (GeneID 258267),1,-0.96,1.45,1.31,enough cells to score
Ift81 (GeneID 12589),1,1.44,1.63,2.21,enough cells to score
Hs1bp3 (GeneID 58240),1,,1.36,1.51,fewer than 50 cells per well; well left out of scoring
Arnt (GeneID 11863),1,-0.26,1.58,1.58,enough cells to score
Dnajc11 (GeneID 230935),1,1.55,1.69,1.55,enough cells to score
Gpr12 (GeneID 14738),1,-0.5,1.44,1.5,enough cells to score
Has2 (GeneID 15117),1,-0.4,1.57,1.5,enough cells to score
Dnah14 (GeneID 240960),1,-0.16,1.48,1.51,enough cells to score
Or52h7 (GeneID 259050),1,2.32,1.42,1.54,enough cells to score
4930474N05Rik (GeneID 218921),1,,0.944,1.28,fewer than 50 cells per well; well left out of scoring
Galnt18 (GeneID 233733),1,-0.01,1.62,1.79,enough cells to score
Csnk1d (GeneID 104318),1,-1.47,1.43,1.22,enough cells to score
Slc38a11 (GeneID 320106),1,0.92,1.54,1.68,enough cells to score
Exoc5 (GeneID 105504),1,0.71,1.7,1.75,enough cells to score
Gm9946 (GeneID 330403),1,-0.17,1.41,1.49,enough cells to score
Kcnk3 (GeneID 16527),1,1.12,1.64,1.51,enough cells to score
Zfp42 (GeneID 22702),1,,0,1.38,fewer than 50 cells per well; well left out of scoring
Pih1d1 (GeneID 68845),1,-1.19,1.38,1.28,enough cells to score
Vwc2 (GeneID 319922),1,-1.08,1.22,1.39,enough cells to score
Dazap1 (GeneID 70248),1,-1.66 (active),1.22,1.42,enough cells to score
Hoxa1 (GeneID 15394),1,0.92,1.5,1.55,enough cells to score
Fbxl20 (GeneID 72194),1,,1.12,1.53,fewer than 50 cells per well; well left out of scoring
Fbxl20 (GeneID 72194),2,-1.37,1.25,1.22,enough cells to score
Taok3 (GeneID 330177),1,-1.9 (active),1.32,1.26,enough cells to score
Spdl1 (GeneID 70385),1,,1.04,1.23,fewer than 50 cells per well; well left out of scoring
Orc3 (GeneID 50793),1,0.43,1.45,1.33,enough cells to score
Ifi27l2b (GeneID 217845),1,,1.61,1.58,fewer than 50 cells per well; well left out of scoring
Or2j6 (GeneID 258955),1,1.07,1.59,1.39,enough cells to score
4933428P19Rik (GeneID 71229),1,-0.11,1.35,1.45,enough cells to score
Abcd3 (GeneID 19299),1,0.82,1.85,1.62,enough cells to score
